No constants are given. Whether binding was seen depends on the method and setting. Some entries that bind do so weakly or less than the wild type. Values belong to the binder of their own block, whether it stands above or below them.
Legend:
Assay in all cases: co-expression and co-purification, SDS-PAGE; subunits co-expressed from one plasmid in E. coli; F1 complex purified as for bMF1 (ref. 26) or PdF1 (ref. 27); conformation of α3β3γ1 confirmed with SDS-PAGE
[1] = target: α subunit of F1-ATPase from Paracoccus denitrificans (PdF1) (Paracoccus denitrificans) (UniProt A1B8N8)
[2] = target: β subunit of bovine mitochondrial F1-ATPase (bMF1) (bovine) (UniProt P00829)
[3] = target: α subunit of F1-ATPase from thermophilic Bacillus PS3 (TF1) (thermophilic Bacillus PS3) (UniProt P09219)
[4] = target: T1, γ subunit of F1-ATPase from Paracoccus denitrificans (PdF1), γQ115C, γD214C (Paracoccus denitrificans) (UniProt A1B8N9)
T1 sequence: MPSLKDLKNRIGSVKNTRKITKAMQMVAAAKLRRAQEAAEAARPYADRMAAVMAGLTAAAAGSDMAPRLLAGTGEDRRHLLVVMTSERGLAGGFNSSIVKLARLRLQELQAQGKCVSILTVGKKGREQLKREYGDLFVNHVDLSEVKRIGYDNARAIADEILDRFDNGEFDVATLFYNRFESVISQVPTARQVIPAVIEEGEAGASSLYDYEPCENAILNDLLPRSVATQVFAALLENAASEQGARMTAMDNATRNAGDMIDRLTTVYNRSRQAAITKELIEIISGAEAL

By UniProt entry, the sequences of proteins in these tests, tags left out. Residues count along the entry.
UniProt A1B8N8: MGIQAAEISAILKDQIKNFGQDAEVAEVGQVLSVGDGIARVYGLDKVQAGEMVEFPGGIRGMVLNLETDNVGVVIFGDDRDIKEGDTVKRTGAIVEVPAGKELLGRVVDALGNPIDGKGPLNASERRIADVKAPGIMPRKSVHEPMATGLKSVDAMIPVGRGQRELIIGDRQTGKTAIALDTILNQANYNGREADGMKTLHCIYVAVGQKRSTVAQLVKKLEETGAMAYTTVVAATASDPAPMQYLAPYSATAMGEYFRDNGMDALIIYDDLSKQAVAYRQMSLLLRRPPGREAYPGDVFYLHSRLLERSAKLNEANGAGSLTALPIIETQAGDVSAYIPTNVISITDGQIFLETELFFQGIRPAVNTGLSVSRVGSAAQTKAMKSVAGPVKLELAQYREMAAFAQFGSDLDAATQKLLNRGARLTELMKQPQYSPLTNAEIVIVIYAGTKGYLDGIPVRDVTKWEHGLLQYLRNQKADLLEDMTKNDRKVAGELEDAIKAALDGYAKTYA
UniProt P00829, residues 47-528: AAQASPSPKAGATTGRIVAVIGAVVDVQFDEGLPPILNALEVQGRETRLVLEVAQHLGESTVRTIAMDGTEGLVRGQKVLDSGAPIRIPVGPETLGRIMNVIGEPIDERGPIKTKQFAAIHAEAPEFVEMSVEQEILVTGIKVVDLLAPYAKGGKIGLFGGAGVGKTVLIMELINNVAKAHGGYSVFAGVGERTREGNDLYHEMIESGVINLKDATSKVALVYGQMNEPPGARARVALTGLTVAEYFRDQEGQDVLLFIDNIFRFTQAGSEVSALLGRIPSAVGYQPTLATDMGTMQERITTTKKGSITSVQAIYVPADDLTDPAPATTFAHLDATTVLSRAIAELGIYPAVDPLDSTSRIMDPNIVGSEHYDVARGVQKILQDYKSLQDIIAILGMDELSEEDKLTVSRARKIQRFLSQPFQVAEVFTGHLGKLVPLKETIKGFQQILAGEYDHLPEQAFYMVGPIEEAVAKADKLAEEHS
UniProt P09219: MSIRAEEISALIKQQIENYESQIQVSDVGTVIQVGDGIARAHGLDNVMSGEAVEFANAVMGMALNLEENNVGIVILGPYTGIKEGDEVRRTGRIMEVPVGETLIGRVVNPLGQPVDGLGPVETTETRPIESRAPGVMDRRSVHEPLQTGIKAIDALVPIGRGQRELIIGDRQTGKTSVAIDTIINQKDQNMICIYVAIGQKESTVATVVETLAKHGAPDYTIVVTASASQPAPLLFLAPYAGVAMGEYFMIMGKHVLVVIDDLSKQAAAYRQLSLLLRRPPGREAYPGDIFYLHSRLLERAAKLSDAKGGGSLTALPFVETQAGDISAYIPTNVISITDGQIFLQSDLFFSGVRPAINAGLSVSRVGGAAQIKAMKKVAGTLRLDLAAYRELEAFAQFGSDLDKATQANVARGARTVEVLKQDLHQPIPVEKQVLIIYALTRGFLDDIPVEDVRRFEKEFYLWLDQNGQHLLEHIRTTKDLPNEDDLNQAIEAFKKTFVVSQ

binding [4]: binds
B3: ε subunit of F1-ATPase from Paracoccus denitrificans (PdF1) (protein, UniProt A1B8P1 1-148)
chain: MADTMQFDLVSPERNLVSVPVREVRLPGADGDLTAMPGHAPAIVNLRPGLVTVVAGDGSETEFAVTGGFAEINNESVTLLAERGHPRAEMTQEVFNEMMAQARRRVEAAKERESAGEELVAAAVKLLADMEALGTHIGLDPNHANFPH

binding [4]: binds
B4: δ subunit of F1-ATPase from Paracoccus denitrificans (PdF1) (protein, UniProt A1B8N7 1-188)
chain: MTVANSASISADIAGRYAQALFDLVRDSGGIDALSSQIDDLASAYDASQDLRDLTLSPLYDRQQQEAAVGALSERMGLSAELANTLRLLARNRRLFTLPQFVAKLRNLIADAKGEVTADVVSAQALTDEQKARLADTLAAKSGKTVKLNARVDESLIGGMIVKLGSQMIDSSIRSKLASLQNAMKEVG

Second part, the binder before the results:

B1: γ subunit of F1-ATPase from Paracoccus denitrificans (PdF1), γQ115C, γD214C (protein, UniProt A1B8N9 1-290)
chain: MPSLKDLKNRIGSVKNTRKITKAMQMVAAAKLRRAQEAAEAARPYADRMAAVMAGLTAAAAGSDMAPRLLAGTGEDRRHLLVVMTSERGLAGGFNSSIVKLARLRLQELQAQGKCVSILTVGKKGREQLKREYGDLFVNHVDLSEVKRIGYDNARAIADEILDRFDNGEFDVATLFYNRFESVISQVPTARQVIPAVIEEGEAGASSLYDYEPCENAILNDLLPRSVATQVFAALLENAASEQGARMTAMDNATRNAGDMIDRLTTVYNRSRQAAITKELIEIISGAEAL
binding [1]: binds
binding [2]: binds

B2: γ subunit of bovine mitochondrial F1-ATPase (bMF1), γA99C, γS191C (protein, UniProt P05631 26-298)
chain: ATLKDITRRLKSIKNIQKITKSMKMVAAAKYARAERELKPARVYGVGSLALYEKADIKTPEDKKKHLIIGVSSDRGLCGAIHSSVAKQMKSEAANLAACGKEVKIIGVGDKIRSILHRTHSDQFLVTFKEVGRRPPTFGDASVIALELLNSGYEFDEGSIIFNRFRSVISYKTEEKPIFSLDTISSAESMCIYDDIDADVLRNYQEYSLANIIYYSLKESTTSEQSARMTAMDNASKNASEMIDKLTLTFNRTRQAVITKELIEIISGAAALD
binding [3]: binds

— publication PMC10182284, “Rotary properties of hybrid F1-ATPases consisting of subunits from different species” (iScience, 2023)
